The target of this assay is GST-GukH^749-1044 (GukHolder COOH-terminus) (Drosophila). The experiment in a line: pull-down; GST fusions (GST-Khc73 MBS, GST-GukH 749-1044) on glutathione agarose with purified Dlg GK or SH3GK proteins (legend of Figure 5A); binding buffer 10 mM HEPES pH 7.5, 100 mM NaCl, 1 mM dithiothreitol, 0.002% Triton X-100, 4°C, 1 hr; the methods tell the reverse orientation (GST-Dlg on beads, His-GukH added, anti-His blot); both purified.

These are yes or no findings as the source states them, for the method shown. Binding calls can cover weak binding; strength is not graded here.

B1: Discs large SH3GK S662D (domain or fragment, UniProt P31007-5 598-975)
chain: TQKRSLYVRALFDYDPNRDDGLPSRGLPFKHGDILHVTNASDDEWWQARRVLGDNEDEQIGIVPDKRRWERKMRARDRSVKFQGHAAANNNLDKQSTLDRKKKNFTFSRKFPFMKSRDEKNEDGSDQEPNGVVSSTSEIDINNVNNNQSNEPQPFMLCYTQDDANAEGASEENVLSYEAVQRLSINYTRPVIILGPLKDRINDDLISEYPDKFGSCVPHTTRPKREYEVDGRDYHFVSSREQMERDIQNHLFIEAGQYNDNLYGTSVASVREVAEKGKHCILDVSGNAIKRLQVAQLYPVAVFIKPKSVDSVMEMNRRMTEEQAKKTYERAIKMEQEFGEYFTGVVQGDTIEEIYSKVKSMIWSQSGPTIWVPSKESL
Turning to B1, the binding result is on record as “binds”.

B2: Discs large SH3GK S676D (domain or fragment, UniProt P31007-5 598-975)
chain: TQKRSLYVRALFDYDPNRDDGLPSRGLPFKHGDILHVTNASDDEWWQARRVLGDNEDEQIGIVPSKRRWERKMRARDRDVKFQGHAAANNNLDKQSTLDRKKKNFTFSRKFPFMKSRDEKNEDGSDQEPNGVVSSTSEIDINNVNNNQSNEPQPFMLCYTQDDANAEGASEENVLSYEAVQRLSINYTRPVIILGPLKDRINDDLISEYPDKFGSCVPHTTRPKREYEVDGRDYHFVSSREQMERDIQNHLFIEAGQYNDNLYGTSVASVREVAEKGKHCILDVSGNAIKRLQVAQLYPVAVFIKPKSVDSVMEMNRRMTEEQAKKTYERAIKMEQEFGEYFTGVVQGDTIEEIYSKVKSMIWSQSGPTIWVPSKESL
For the molecule B2, the binding entry is “binds”.

The record behind these values is article PMC5706957.
